Source: paper PMC8595659

By UniProt entry, the sequences of proteins in these tests, tags left out. Where a name states a change or a piece, a line headed by the entry shows the natural chain unless it says otherwise.
UniProt Q08050: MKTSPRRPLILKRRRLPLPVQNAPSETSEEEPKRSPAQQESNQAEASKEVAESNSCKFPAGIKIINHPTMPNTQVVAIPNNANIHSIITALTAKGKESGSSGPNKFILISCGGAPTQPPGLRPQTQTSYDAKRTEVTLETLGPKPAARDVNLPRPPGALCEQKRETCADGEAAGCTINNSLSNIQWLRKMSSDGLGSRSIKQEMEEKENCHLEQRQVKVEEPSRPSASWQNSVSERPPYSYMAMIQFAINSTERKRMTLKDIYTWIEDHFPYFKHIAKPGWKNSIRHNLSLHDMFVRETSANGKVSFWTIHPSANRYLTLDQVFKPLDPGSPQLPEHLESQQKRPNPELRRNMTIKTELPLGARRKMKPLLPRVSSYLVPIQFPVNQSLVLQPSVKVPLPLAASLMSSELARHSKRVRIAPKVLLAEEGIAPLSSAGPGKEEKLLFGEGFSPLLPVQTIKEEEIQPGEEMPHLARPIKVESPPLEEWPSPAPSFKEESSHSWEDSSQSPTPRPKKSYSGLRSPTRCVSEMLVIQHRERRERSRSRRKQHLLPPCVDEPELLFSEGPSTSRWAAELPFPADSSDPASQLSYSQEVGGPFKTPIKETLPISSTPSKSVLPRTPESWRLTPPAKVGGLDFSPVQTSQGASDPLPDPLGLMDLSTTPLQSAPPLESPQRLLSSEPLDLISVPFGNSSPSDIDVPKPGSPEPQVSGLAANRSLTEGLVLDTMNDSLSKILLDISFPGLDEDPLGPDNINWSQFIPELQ

Target: GST-FOXM1 (human) (UniProt Q08050)
Test: EMSA
Settings: 25 mM HEPES-KOH pH 7.5, 100 mM KCl, 1 mM DTT, 0.1 mM EDTA, 20% glycerol, 50 ng protein, 1 pmol probe in 20 uL, room temperature 30 min; commercial protein; protein details: GST (N-terminal); label: 5' biotin

Sequence	binding result
ACAGGGCTGCATCAACACACCTGGCTAAACACAATTTTTAGTACAGATGGGGTTTCAC (double strand) [UBE2S promoter Site1 (MUT)]	no binding
GTAGCTGTTTCTTCAGTTGTTTTGGGTTACACACATTTGTACATATTGGTGGGGGTCTCT (double strand) [UBE2S promoter Site2 (MUT)]	no binding

Construct, isoform or probe ends are uncertain for at least one entry. Negatives hold for the conditions tested. At least one verdict was read from the data and is not stated in words by the source.
